Results from US8278473B2, “Alpha, beta-unsaturated imidate compound and pesticidal composition containing the same” (Sumitomo Chemical Company, Limited, priority 2007, dated 2012).
Some of these results come from one statement about several compounds together. For part of these data: At least one read-out could not be matched to a standard name with certainty. Some compounds share one range, which may span the group rather than tell each member.

Legend:
Type in all cases: in vivo
Musca domestica = assay: Test Example 5: Musca domestica, filter paper with sucrose bait; conditions: 500 ppm test solution, 0.7 ml on filter paper; female imagoes; after 24 hours
Spodoptera litura = assay: Test Example 1: Spodoptera litura, artificial diet/filter paper test; conditions: 500 ppm test solution, 2 mL; fourth-instar larvae; after 6 days
Aphis gossypii = assay: Test Example 3: Aphis gossypii, spray on cucumber leaves; conditions: 500 ppm test solution, 20 mL sprayed on cucumber; imagoes and larvae; after 6 days
Culex pipiens pallens = assay: Test Example 7: Culex pipiens pallens larvae in treated water; conditions: active ingredient concentration 3.5 ppm in water; last-instar larvae; after 1 day
Tetranychus urticae = assay: Test Example 8: Tetranychus urticae, spray on bean plant; conditions: 500 ppm test solution, 20 mL sprayed on bean plant; after 8 days
Plutella xylostella = assay: Test Example 9: Plutella xylostella, spray on cabbage; conditions: 500 ppm test solution, 20 mL sprayed on cabbage; second-instar larvae; 25° C.; after 5 days
Adoxophyes orana = assay: Test Example 2: Adoxophyes orana, artificial diet/filter paper test; conditions: 500 ppm test solution, 1 mL; first-instar larvae; after 7 days
Blattalla germanica = assay: Test Example 6: Blattalla germanica, filter paper with sucrose bait; conditions: 500 ppm test solution, 0.7 ml on filter paper; male imagoes; after 6 days
Nilaparvata lugens = assay: Test Example 4: Nilaparvata lugens, spray on rice plant; conditions: 500 ppm test solution, 20 mL/pot sprayed on rice; first-instar larvae; after 6 days

Row | SMILES | index in terms of death rate (Musca domestica) | index in terms of death rate (Spodoptera litura) | index in terms of survival rate (Aphis gossypii) | index in terms of death rate (Culex pipiens pallens) | index in terms of the surviving number (female imagoes) (Tetranychus urticae) | index in terms of death rate (Plutella xylostella) | index in terms of death rate (Adoxophyes orana) | index in terms of death rate (Blattalla germanica) | index in terms of survival rate (Nilaparvata lugens)
1 | CCC(=COc1ccc(OC)cc1)C(=Nc1ccccc1)Oc1ccccc1 [Compound 317, phenyl 2-ethyl-3-(4-methoxyphenyloxy)-N-phenyl-2-propenimidate] | 3 (3: 70 to 99%) | 3 (3: 80 to 99%) | 3 (3: 1 to 10%) | 4 (4: 91 to 100%) | 3 (index 3: 4 to 10) | 3 (3: 80 to 99%) | 3 (3: 80 to 99%) | 4 (4: 100%) | 3 (3: 1 to 10%)
2 | CCC(=COc1ccc(OC)cc1)C(=Nc1ccccc1)Oc1cccc(C)c1 [Compound 318, 3-methylphenyl 2-ethyl-3-(4-methoxyphenyloxy)-N-phenyl-2-propenimidate] | 3 (3: 70 to 99%) | 3 (3: 80 to 99%) | 3 (3: 1 to 10%) | 4 (4: 91 to 100%) | 3 (index 3: 4 to 10) | 3 (3: 80 to 99%) | 3 (3: 80 to 99%) | 4 (4: 100%) | 3 (3: 1 to 10%)
3 | CCCC(=COc1ccccc1)C(=Nc1ccccc1)Sc1ccccc1 [Compound 321, phenyl 3-phenoxy-N-phenyl-2-n-propyl-2-propenimidothioate] | 3 (3: 70 to 99%) | 3 (3: 80 to 99%) | 3 (3: 1 to 10%) | 4 (4: 91 to 100%) | 3 (index 3: 4 to 10) | 3 (3: 80 to 99%) | 3 (3: 80 to 99%) | 4 (4: 100%) | 3 (3: 1 to 10%)
